This is one part of the list.
Compound: Cc1cc(ccc1-c1ccccc1)C(=O)N1CCCN(CC1)C(=O)CCl [compound 10]
Experiment: probe-labelled cysteine peptide fold change vs DMSO (competition) (log2 fold change); higher = less target engagement (more negative = stronger competition)
Details: THP-1, incubation time: 4 h
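Note: competitive profiling in live THP-1 cells: cysteine peptides tagged with an iodoacetamide desthiobiotin (IA-DTB) probe, intensity after compound treatment relative to DMSO-treated cells.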

The chains behind the UniProt entries cited, without tags or fusion partners. Where a name states a change or a piece, a line headed by the entry shows the natural chain unless it says otherwise.
UniProt Q12986: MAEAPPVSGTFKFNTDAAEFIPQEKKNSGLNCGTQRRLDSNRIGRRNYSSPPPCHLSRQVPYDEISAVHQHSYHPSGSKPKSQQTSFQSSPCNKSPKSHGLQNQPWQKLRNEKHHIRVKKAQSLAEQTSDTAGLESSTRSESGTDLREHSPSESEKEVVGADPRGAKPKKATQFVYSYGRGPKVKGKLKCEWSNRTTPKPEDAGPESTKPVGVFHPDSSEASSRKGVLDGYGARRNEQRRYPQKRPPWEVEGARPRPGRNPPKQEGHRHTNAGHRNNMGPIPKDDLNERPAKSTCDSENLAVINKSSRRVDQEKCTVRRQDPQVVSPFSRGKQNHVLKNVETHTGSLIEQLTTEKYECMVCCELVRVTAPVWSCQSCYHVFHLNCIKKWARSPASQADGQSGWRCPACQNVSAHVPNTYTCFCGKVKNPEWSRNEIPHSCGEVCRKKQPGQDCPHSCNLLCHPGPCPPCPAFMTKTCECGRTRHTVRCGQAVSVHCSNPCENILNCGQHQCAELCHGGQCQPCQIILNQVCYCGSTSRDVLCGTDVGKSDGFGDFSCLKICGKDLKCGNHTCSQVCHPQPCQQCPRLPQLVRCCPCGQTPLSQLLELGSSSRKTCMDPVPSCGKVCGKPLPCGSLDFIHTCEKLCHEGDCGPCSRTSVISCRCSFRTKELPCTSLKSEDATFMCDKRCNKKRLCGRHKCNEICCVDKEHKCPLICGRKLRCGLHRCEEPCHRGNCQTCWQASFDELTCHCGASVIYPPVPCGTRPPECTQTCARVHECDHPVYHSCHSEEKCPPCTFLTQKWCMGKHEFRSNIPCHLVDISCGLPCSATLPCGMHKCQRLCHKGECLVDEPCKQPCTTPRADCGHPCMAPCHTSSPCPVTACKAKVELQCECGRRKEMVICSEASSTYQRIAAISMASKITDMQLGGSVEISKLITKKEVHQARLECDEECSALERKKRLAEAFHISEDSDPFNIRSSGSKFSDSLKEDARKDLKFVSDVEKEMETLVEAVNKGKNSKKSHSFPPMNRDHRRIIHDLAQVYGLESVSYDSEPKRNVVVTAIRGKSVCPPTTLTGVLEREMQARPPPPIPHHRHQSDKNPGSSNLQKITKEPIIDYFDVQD
UniProt P55160: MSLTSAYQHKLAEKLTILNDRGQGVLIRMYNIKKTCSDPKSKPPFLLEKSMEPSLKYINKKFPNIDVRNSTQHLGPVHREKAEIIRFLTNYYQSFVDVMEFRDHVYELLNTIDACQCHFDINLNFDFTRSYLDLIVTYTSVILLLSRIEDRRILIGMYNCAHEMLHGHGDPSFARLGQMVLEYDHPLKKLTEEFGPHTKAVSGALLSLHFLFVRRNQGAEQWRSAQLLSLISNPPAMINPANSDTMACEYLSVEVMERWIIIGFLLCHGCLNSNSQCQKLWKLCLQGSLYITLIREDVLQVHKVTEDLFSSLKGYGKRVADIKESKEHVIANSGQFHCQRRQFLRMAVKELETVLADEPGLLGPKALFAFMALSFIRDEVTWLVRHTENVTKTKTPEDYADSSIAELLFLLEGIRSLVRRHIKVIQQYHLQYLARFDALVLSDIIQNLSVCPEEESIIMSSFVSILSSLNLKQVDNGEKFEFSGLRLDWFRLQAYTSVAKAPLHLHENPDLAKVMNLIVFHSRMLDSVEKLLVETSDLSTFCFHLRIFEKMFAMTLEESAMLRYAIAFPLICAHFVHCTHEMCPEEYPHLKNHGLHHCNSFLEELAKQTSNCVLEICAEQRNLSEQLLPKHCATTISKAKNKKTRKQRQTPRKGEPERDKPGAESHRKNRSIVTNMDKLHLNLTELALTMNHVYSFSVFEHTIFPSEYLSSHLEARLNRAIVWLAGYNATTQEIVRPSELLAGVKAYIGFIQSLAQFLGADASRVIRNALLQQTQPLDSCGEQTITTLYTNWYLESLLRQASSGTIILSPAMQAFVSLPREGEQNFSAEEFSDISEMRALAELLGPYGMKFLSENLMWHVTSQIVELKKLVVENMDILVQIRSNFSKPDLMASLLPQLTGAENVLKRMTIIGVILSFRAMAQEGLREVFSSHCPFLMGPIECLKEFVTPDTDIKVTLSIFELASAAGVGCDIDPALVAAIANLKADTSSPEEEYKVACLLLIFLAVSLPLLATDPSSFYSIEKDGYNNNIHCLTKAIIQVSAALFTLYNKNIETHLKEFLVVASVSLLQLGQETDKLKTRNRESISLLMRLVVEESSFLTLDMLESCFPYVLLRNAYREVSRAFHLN
UniProt Q00653: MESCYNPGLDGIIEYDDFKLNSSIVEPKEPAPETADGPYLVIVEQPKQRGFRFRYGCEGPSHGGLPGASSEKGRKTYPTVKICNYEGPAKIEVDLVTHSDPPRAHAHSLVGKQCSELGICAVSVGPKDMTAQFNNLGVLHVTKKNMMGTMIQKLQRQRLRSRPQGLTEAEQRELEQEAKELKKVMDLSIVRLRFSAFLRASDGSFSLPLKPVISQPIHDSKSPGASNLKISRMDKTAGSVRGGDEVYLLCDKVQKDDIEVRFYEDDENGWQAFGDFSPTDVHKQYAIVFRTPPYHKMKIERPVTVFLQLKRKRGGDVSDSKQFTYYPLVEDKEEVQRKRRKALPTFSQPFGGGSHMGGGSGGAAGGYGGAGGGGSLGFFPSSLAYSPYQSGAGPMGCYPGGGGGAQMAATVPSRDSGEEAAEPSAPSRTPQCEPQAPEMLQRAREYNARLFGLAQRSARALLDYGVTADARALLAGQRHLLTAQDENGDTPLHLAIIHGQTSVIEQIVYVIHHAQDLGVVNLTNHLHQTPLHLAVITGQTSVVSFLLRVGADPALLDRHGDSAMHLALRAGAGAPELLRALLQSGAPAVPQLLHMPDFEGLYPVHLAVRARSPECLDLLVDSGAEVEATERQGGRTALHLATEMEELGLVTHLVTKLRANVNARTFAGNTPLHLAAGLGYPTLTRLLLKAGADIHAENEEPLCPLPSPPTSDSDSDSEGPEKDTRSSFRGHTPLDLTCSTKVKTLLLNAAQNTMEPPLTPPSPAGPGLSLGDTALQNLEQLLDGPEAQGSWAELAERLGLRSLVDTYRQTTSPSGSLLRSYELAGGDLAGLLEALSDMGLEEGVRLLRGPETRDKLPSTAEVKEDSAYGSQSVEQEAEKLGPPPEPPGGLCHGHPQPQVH
UniProt Q8TD19: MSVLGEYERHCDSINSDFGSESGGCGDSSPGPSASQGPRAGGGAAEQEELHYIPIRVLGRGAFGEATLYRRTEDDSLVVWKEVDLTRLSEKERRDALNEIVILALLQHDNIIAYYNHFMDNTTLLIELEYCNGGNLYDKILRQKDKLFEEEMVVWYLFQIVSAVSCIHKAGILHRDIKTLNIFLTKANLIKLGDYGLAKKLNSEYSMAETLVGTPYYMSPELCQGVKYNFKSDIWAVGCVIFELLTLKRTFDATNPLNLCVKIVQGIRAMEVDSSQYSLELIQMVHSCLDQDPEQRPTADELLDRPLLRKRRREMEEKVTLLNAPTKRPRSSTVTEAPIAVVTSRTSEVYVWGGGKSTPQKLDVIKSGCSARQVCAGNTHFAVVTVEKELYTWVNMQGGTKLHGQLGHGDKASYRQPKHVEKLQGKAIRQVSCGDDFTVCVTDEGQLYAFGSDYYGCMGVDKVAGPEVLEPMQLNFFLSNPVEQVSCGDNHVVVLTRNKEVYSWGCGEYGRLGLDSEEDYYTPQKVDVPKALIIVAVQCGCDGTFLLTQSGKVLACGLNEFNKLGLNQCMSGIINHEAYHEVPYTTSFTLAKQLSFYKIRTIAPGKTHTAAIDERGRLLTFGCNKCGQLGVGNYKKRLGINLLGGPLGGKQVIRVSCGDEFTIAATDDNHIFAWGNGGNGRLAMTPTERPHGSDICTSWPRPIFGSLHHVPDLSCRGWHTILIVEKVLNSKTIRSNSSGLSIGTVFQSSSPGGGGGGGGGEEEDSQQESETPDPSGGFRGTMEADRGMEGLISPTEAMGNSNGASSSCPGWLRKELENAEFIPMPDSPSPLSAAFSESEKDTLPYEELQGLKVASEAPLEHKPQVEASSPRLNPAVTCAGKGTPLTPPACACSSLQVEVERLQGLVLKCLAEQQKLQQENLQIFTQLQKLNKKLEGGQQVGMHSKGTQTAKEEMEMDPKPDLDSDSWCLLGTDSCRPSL
UniProt O43678, whole entry, looked up: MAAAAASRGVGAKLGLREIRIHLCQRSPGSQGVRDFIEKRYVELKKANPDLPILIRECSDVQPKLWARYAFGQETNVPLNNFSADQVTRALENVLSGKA
UniProt O94916: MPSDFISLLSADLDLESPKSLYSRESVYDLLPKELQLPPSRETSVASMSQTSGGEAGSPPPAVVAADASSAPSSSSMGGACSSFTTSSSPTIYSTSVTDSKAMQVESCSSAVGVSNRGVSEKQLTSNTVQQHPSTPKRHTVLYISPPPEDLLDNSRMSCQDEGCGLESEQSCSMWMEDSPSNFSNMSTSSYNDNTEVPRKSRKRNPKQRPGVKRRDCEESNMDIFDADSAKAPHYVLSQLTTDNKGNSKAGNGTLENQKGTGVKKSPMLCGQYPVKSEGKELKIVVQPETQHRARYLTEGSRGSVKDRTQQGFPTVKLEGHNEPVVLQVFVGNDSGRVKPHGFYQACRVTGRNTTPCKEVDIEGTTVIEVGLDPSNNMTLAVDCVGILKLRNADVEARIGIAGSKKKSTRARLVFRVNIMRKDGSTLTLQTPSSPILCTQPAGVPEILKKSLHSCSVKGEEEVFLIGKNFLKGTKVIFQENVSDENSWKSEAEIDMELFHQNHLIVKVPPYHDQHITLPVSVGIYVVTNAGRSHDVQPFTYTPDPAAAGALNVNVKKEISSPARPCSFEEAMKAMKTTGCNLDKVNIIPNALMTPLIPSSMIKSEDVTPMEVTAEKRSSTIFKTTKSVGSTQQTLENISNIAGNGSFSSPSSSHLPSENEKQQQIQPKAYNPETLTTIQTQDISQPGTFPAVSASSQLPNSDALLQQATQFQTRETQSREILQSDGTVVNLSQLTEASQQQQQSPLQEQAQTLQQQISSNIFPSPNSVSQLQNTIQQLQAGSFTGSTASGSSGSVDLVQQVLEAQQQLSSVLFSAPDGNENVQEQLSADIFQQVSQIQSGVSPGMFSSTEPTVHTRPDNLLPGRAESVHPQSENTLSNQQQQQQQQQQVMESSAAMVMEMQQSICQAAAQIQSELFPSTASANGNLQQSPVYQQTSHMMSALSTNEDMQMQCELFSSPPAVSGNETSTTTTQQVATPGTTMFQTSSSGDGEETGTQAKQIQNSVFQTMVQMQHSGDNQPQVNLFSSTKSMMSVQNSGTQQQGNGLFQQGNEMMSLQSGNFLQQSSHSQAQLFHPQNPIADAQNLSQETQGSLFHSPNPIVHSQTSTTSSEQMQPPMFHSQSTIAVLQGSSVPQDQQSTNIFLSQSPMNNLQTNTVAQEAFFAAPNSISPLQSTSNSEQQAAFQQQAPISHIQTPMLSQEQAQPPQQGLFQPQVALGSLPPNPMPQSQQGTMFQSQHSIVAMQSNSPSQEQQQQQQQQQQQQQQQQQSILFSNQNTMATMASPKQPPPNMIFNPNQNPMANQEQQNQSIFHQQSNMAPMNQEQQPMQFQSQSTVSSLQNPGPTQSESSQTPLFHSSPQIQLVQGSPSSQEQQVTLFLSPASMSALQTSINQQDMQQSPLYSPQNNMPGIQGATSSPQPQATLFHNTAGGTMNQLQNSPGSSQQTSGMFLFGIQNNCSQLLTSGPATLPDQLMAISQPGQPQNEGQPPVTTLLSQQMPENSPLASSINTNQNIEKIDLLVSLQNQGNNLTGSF
UniProt Q9NX14, whole entry, looked up: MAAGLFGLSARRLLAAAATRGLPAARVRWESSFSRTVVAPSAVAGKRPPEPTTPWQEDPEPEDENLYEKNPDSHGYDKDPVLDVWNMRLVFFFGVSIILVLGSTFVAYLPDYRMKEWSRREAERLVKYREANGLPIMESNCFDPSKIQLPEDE
UniProt Q96IV0: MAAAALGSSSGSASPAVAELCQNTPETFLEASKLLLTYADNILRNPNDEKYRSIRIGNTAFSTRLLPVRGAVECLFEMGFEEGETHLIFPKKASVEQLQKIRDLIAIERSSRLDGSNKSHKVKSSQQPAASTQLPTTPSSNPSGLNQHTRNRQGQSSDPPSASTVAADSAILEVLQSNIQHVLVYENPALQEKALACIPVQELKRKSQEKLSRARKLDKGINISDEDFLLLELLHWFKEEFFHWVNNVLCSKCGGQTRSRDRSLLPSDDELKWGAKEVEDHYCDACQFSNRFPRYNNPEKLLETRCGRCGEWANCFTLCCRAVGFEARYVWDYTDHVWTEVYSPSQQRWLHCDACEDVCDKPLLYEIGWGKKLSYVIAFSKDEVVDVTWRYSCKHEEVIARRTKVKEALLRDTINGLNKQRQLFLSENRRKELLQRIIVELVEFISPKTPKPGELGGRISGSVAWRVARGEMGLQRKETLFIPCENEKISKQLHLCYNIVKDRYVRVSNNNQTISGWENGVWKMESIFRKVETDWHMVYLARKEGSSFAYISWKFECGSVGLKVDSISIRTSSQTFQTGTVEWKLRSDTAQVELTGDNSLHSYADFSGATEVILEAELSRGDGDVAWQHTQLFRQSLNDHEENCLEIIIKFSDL

Row | Target | probe-labelled cysteine peptide fold change (10 µM) | probe-labelled cysteine peptide fold change (50 µM)
1 | NELFCD_Q8IXH7_398_AVETVHNLCCNENK (UniProt Q8IXH7) | 0.0172 | -0.151
2 | NKAP_Q8N5F7_47_SHSCSR (UniProt Q8N5F7) | -0.0637 | -0.481
3 | NEDD4_P46934-4_4_ATCAVEVFGLLEDEENSR (UniProt P46934) | -0.332 | -0.281
4 | NCOR1_O75376_1274_ESPVSAPLEGLICR (UniProt O75376) | -0.229 | -0.626
5 | NFX1_Q12986_730_CEEPCHR (UniProt Q12986) | 0.0939 | 0.0985
6 | NIT1_Q86X76_80_LGACLAFLPEAFDFIARDPAETLHLSEPLGGK (UniProt Q86X76) | 0.761 | -0.152
7 | NDUFB7_P17568_80_RDSFPNFLACK (UniProt P17568) | -0.129 | -0.352
8 | NDUFA8_P51970_36_AAAHHYGAQCDKPNK (UniProt P51970) | -0.154 | -0.0103
9 | NFKBIE_O00221_438_MLNGCTPLHLAAGR (UniProt O00221) | -0.0872 | -0.217
10 | NF1_P21359_434_IDAVYCHSVELR (UniProt P21359) | -0.0794 | 0.0569
11 | NELFB_Q8WX92_115_MPSLQPVVMCVMK (UniProt Q8WX92) | -0.0237 | -0.514
12 | NFX1_Q12986_901_EMVICSEASSTYQR (UniProt Q12986) | -0.0139 | -0.364
13 | NFKBIA_P25963_167_GNTPLHLACEQGCLASVGVLTQSCTTPHLHSILK (UniProt P25963) | -0.33 | -0.481
14 | NCKIPSD_Q9NZQ3_412_CYLEELLHILTDADPEVCKK (UniProt Q9NZQ3) | 0.0422 | -0.25
15 | NFKB1_P19838_61_YVCEGPSHGGLPGASSEK (UniProt P19838) | 0.0894 | -0.824
16 | NIT1_Q86X76-2_16_AISSSSCELPLVAVCQVTSTPDK (UniProt Q86X76) | 0.0369 | 0.129
17 | NCKAP1L_P55160_598_NHGLHHCNSFLEELAK (UniProt P55160) | -0.0406 | -0.242
18 | NFKB2_Q00653_432_TPQCEPQAPEMLQR (UniProt Q00653) | -0.141 | -0.498
19 | NIFK_Q9BYG3_269_QPISCVK (UniProt Q9BYG3) | 0.234 | -0.0647
20 | NKRF_O15226_386_VFLQDHCLAEGYGTK (UniProt O15226) | 0.0654 | 0.266
21 | NCKAP1L_P55160_942_EVFSSHCPFLMGPIECLK (UniProt P55160) | 0.112 | 0.0947

Row | Target | probe-labelled cysteine peptide fold change (10 µM) | probe-labelled cysteine peptide fold change (50 µM)
22 | NIPSNAP2_O75323_108_HYPCTLVGTWNTWYGEQDQAVHLWR (UniProt O75323) | 0.0481 | -0.0135
23 | NHLRC2_Q8NBF2_716_AILFSQPLQITDTQQGCIAPVELR (UniProt Q8NBF2) | 0.0495 | 0.165
24 | NCSTN_Q92542_586_EQCQDPSKVPSENK (UniProt Q92542) | -0.327 | -0.479
25 | NIT2_Q9NQR4_44_IVSLPECFNSPYGAK (UniProt Q9NQR4) | -0.0068 | 0.0915
26 | NCS1_P62166_38_DCPSGQLDAAGFQK (UniProt P62166) | 0.245 | 0.347
27 | NEU1_Q99519_287_NQNNYHCHCR (UniProt Q99519) | 0.0522 | -0.00745
28 | NCOR2_Q9Y618_866_SECTEEAEEGPAK (UniProt Q9Y618) | 0.186 | -0.0701
29 | NDUFAF7_Q7L592_275_DHVEVCPDAGVIIEELSQR (UniProt Q7L592) | 0.399 | 0.0232
30 | NELFCD_Q8IXH7_169_LAEAHPDCLMLNFTVK (UniProt Q8IXH7) | -0.0548 | 0.0649
31 | NIP7_Q9Y221_36_YIGENLQLLVDRPDGTYCFR (UniProt Q9Y221) | 0.0294 | 0.155
32 | NIT2_Q9NQR4_97_LYNTCAVFGPDGTLLAK (UniProt Q9NQR4) | 0.215 | 0.125
33 | NECTIN2_Q92692_238_ADGVTVTCK (UniProt Q92692) | -0.148 | -0.394
34 | NDUFA5_Q16718_17_KTTGLVGLAVCNTPHER (UniProt Q16718) | -0.246 | -0.424
35 | NCOA3_Q9Y6Q9_716_DTSSITSCGDGNVVK (UniProt Q9Y6Q9) | -0.387 | -0.458
36 | NHEJ1_Q9H9Q4_97_DAAHPSEATFSCDCVADALILR (UniProt Q9H9Q4) | -0.172 | -0.319
37 | NF1_P21359_1486_FFLDIASDCPTSDAVNHSLSFISDGNVLALHR (UniProt P21359) | 0.0727 | 0.051
38 | NEK9_Q8TD19_696_LAMTPTERPHGSDICTSWPR (UniProt Q8TD19) | 0.0982 | 0.111
39 | NFKBIE_O00221_345_CLLEGRPEPGR (UniProt O00221) | 0.0527 | -0.143
40 | NDUFA2_O43678_58_ECSDVQPK (UniProt O43678) | -0.309 | -0.259
41 | NFX1_Q12986_852_GECLVDEPCK (UniProt Q12986) | -0.0782 | -0.417
42 | NFIX_Q14938_6_MYSPYCLTQDEFHPFIEALLPHVR (UniProt Q14938) | 0.0291 | 0.0462

Quoted from the listing:
NIT2_Q9NQR4_44_IVSLPECFNSPYGAK (UniProt Q9NQR4) – probe-labelled cysteine peptide fold change (50 µM): 0.0915
NHLRC2_Q8NBF2_716_AILFSQPLQITDTQQGCIAPVELR (UniProt Q8NBF2) – probe-labelled cysteine peptide fold change (10 µM): 0.0495
NFX1_Q12986_852_GECLVDEPCK (UniProt Q12986) – probe-labelled cysteine peptide fold change (10 µM): -0.0782

Single records, as listed above:
NHEJ1_Q9H9Q4_97_DAAHPSEATFSCDCVADALILR (UniProt Q9H9Q4) as listed: probe-labelled cysteine peptide fold change (10 µM) = -0.172; probe-labelled cysteine peptide fold change (50 µM) = -0.319
NDUFA2_O43678_58_ECSDVQPK (UniProt O43678) as listed: probe-labelled cysteine peptide fold change (10 µM) = -0.309; probe-labelled cysteine peptide fold change (50 µM) = -0.259

(list continues)

Row | Target | probe-labelled cysteine peptide fold change (10 µM) | probe-labelled cysteine peptide fold change (50 µM)
43 | NDRG3_Q9UGV2_30_NFQDFDCQEHDIETTHGVVHVTIR (UniProt Q9UGV2) | 0.0368 | -0.22
44 | NEK9_Q8TD19_657_VSCGDEFTIAATDDNHIFAWGNGGNGR (UniProt Q8TD19) | 0.0253 | -0.113
45 | NIT2_Q9NQR4_146_TLSPGDSFSTFDTPYCR (UniProt Q9NQR4) | 0.0904 | 0.573
46 | NKRF_O15226_37_HLSTCDGQNPPKK (UniProt O15226) | 0.0897 | -0.593
47 | NFX1_Q12986_479_TCECGR (UniProt Q12986) | 0.0222 | 0.0969
48 | NFKB2_Q00653_250_GGDEVYLLCDK (UniProt Q00653) | -0.0177 | 0.0572
49 | NECAP2_Q9NVZ3_11_MEESGYESVLCVKPDVHVYR (UniProt Q9NVZ3) | -0.161 | -0.0571
50 | NCOR1_O75376_2322_REEGDPSPHSGGVCKPK (UniProt O75376) | -0.154 | -0.551
51 | NFAT5_O94916_347_VKPHGFYQACR (UniProt O94916) | -0.00988 | 0.00407
52 | NDUFB10_O96000_119_EGQNYQQNCIK (UniProt O96000) | -0.63 | 0.0913
53 | NDC80_O14777_342_VELECETIK (UniProt O14777) | 0.11 | 0.192
54 | NCKAP5L_Q9HCH0_1076_NGLVGPLQGCGKPPGKPSSEPGRR (UniProt Q9HCH0) | -0.0916 | 0.00289
55 | NFATC3_Q12968_6_TTANCGAHDELDFK (UniProt Q12968) | -0.185 | -0.196
56 | NFX1_Q12986_572_CGNHTCSQVCHPQPCQQCPR (UniProt Q12986) | 0.172 | 0.183
57 | NFX1_Q12986_377_VTAPVWSCQSCYHVFHLNCIK (UniProt Q12986) | -0.0313 | 0.231
58 | NFX1_Q12986_362_YECMVCCELVR (UniProt Q12986) | 0.202 | -0.0121
59 | NDUFB11_Q9NX14_141_YREANGLPIMESNCFDPSK (UniProt Q9NX14) | -0.274 | -0.325
60 | NKTR_P30414_32_IMFQLFSDICPK (UniProt P30414) | -0.0767 | -0.0342
61 | NFKBIB_Q15653_240_DAGADLDKPEPTCGR (UniProt Q15653) | -0.396 | -0.167
62 | NIN_Q8N4C6_1261_ENDCLQEELR (UniProt Q8N4C6) | -0.138 | 0.178
63 | NKRF_O15226_453_DLVVYENSSNPVCTLNDTAQFNR (UniProt O15226) | 0.234 | -0.0806

Row | Target | probe-labelled cysteine peptide fold change (10 µM) | probe-labelled cysteine peptide fold change (50 µM)
64 | NFXL1_Q6ZNB6_335_CENPCHAGSCQPCPR (UniProt Q6ZNB6) | 0.133 | -0.055
65 | NDUFV1_P49821_425_QIEGHTICALGDGAAWPVQGLIR (UniProt P49821) | 0.563 | 0.135
66 | NHP2_Q9NX24_98_GIMVLAGDTLPIEVYCHLPVMCEDR (UniProt Q9NX24) | -0.00823 | 0.242
67 | NFKB1_P19838_87_ICNYVGPAK (UniProt P19838) | 0.163 | 0.0367
68 | NFATC3_Q12968_358_LELCSDDQGSLSPAR (UniProt Q12968) | -0.212 | 0.0917
69 | NELFB_Q8WX92_254+259_AELLMSLHDLDVGEICTVDPCHK (UniProt Q8WX92) | -0.289 | -0.164
70 | NF1_P21359_509_LLLCNPR (UniProt P21359) | -0.0497 | -0.0523
71 | NFKB1_P19838_161_MTEACIR (UniProt P19838) | 0.158 | 0.0895
72 | NIPBL_Q6KC79_52_IAEEVNCLLACRDDNLVSQLVHSLNQVSTDHIELK (UniProt Q6KC79) | 0.0486 | -0.915
73 | NFIC_P08651_88_DIRPECR (UniProt P08651) | 0.0779 | 0.279
74 | NCKIPSD_Q9NZQ3_138_QPNGVCR (UniProt Q9NZQ3) | -0.425 | -0.733
75 | NCOR2_Q9Y618_1289_KGHVLSYEGGMSVTQCSK (UniProt Q9Y618) | -0.194 | -0.401
76 | NEDD9_Q14511_46_KGDILTVIEQNTGGLEGWWLCSLHGR (UniProt Q14511) | 0.116 | -0.21
77 | NGLY1_Q96IV0_283_EVEDHYCDACQFSNRFPR (UniProt Q96IV0) | 0.102 | 0.228
78 | NGLY1_Q96IV0_352_WLHCDACEDVCDKPLLYEIGWGK (UniProt Q96IV0) | 0.104 | 0.303
79 | NDUFB11_Q9NX14_141_EANGLPIMESNCFDPSK (UniProt Q9NX14) | -0.269 | -0.0512
80 | NFAT5_O94916_270_KSPMLCGQYPVK (UniProt O94916) | -0.106 | -0.791
81 | NDUFA7_O95182_55_LSNNYYCTR (UniProt O95182) | -0.188 | 0.023
82 | NDUFA10_O95299_112_HFPEAGIHYPDSTTGDGKPLATDYNGNCSLEK (UniProt O95299) | -0.194 | -0.224
83 | NDUFS6_O75380_87_VIACDGGGGALGHPK (UniProt O75380) | -0.147 | -0.117

— the supplement of paper PMC12067093, “Discovery and optimisation of a covalent ligand for TRIM25 and its application to targeted protein ubiquitination” (Chemical Science, 2025)
